No constants are given. Whether binding was seen depends on the method and setting. In cells and extracts the contact can be indirect. Some results given as binding are weak or reduced against the parent protein; the word gives no strength.
Molecular target: UBE2D1 (human (endogenous in HUVEC)) (UniProt P51668)
Experiment: co-IP; HUVECs with and without VEGF-A; flash crosslinking with 0.4% paraformaldehyde for 1 min; lysis in RIPA buffer plus EDTA; lysate incubated overnight at 4°C with rabbit anti-UBE2D1 or anti-UBE2D2; protein G agarose beads; washed with 0.1x RIPA plus EDTA; immunoblot for VEGFR2 and TfR

Chains of the proteins cited; added tags and fusions are not shown. Residues count along the entry.
UniProt P51668: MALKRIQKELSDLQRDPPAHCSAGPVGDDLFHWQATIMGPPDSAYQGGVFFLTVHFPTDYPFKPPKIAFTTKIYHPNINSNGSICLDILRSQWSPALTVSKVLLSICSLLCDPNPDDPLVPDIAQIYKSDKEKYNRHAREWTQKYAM
UniProt P35968, residues 20-1356: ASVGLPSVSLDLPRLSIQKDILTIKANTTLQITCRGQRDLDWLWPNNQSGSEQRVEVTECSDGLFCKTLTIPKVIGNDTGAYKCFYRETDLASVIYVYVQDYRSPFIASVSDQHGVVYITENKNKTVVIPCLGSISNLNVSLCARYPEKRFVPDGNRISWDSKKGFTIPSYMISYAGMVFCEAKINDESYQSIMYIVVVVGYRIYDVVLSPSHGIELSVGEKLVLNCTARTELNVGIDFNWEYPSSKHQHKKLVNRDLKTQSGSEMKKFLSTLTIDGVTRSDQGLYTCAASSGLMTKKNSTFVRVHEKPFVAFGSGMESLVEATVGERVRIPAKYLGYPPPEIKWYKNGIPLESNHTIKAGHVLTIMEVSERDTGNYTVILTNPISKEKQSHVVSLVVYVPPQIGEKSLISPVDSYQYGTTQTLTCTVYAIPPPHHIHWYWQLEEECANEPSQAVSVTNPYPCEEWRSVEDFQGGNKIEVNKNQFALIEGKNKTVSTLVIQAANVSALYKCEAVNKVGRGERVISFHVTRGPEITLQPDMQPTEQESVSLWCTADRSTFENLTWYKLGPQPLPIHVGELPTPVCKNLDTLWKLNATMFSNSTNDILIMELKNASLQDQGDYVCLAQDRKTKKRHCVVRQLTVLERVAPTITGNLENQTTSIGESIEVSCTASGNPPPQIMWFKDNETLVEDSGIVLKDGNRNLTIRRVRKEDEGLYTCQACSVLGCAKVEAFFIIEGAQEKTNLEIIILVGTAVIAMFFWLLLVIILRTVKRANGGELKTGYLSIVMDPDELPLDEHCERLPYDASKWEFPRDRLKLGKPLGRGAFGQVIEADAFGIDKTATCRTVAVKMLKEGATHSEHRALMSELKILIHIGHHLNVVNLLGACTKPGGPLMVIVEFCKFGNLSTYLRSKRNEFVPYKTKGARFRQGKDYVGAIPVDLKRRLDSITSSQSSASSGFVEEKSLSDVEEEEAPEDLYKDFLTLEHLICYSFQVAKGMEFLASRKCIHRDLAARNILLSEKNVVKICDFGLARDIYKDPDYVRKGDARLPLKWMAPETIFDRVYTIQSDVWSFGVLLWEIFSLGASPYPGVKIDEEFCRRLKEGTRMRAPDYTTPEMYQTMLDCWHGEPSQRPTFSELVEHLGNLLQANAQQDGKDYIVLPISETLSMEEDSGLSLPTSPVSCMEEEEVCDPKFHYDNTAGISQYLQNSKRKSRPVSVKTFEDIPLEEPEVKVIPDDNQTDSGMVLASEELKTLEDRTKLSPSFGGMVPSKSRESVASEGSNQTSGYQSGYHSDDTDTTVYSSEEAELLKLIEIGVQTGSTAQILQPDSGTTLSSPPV

Q: “Vascular endothelial growth factor receptor 2 (from UniProt P35968 20-1356)” was tested. Which binding did it give?
A: The binding was “binds”.

Reference: article PMC10234107
